The Papp A→B is how fast a substance crosses the layer from the apical side. Read a low Papp A→B as slow passage.

The values that follow come from paper PMC7238241, “Lack of Correlation between In Vitro and In Vivo Studies on the Inhibitory Effects of (‒)-Sophoranone on CYP2C9 Is Attributable to Low Oral Absorption and Extensive Plasma Protein Binding of (‒)-Sophoranone” (Pharmaceutics, 2020).

A short description of this data set: Bi-directional Caco-2 cell permeability. The class given is in vitro ADME. The conditions noted are these: human, n = 3. The method, then:
Caco-2 cell permeability was assessed to predict the oral absorption of SPN. Cell culture and transport studies were performed as previously described. Briefly, for the bi-directional transport studies, the cells were seeded at a density of 1 × 10^5 cells/well, and the cell medium was replaced until they formed confluent monolayers. On the 25th day, the cell monolayers were washed with pre-warmed HBSS buffer. […] Before the experiment, the integrity of the cell monolayers was evaluated by measuring the transepithelial electrical resistance using a Millicell ohmmeter. After 2 h incubation at 37 °C, samples were withdrawn from both sides, respectively. All samples were stored at −80 °C until LC-MS/MS analysis, and all experiments were performed in triplicate.
The apparent permeability coefficient (Papp) was calculated using the following equation. Papp = (Vr/C0) × (1/A) × ([Drug]/t) where, Vr is the volume of medium in the receiver chamber, C0 is the donor compartment concentration at time zero, A is the area of the cell monolayer, t is the treatment time of the drug, and [Drug] is the drug concentration in the receiver chamber.

`CC(C)NCC(O)COc1cccc2ccccc12` (stereo not shown) [propranolol, reference compound] returned a Papp A→B at 2 h, 10 µM of 26.8 ± 3.31 ×10⁻⁶ cm/s.
